PubChem BioAssay AID1259424 | University of Nebraska Medical Center, 2018

- Assay: 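Seek colon cancer survival genes behaving like KSR1, using a six-gene signature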 (primary screen)
- Cells: human HCT116 colon cancer cells
- Reagent: siRNA pool against human genes, 50 nM
- Measured: 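Log2 levels of six mRNAs (branched-DNA multiplex), adjusted by two reference genes and the non-targeting median, then scored against the average KSR1 knockdown pattern as Pearson r and euclidean distance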
- Direction: mean correlation with KSR1 profile: higher = expression change more like KSR1 knockdown
The deposit covers about 14,000 reagents; below is a part drawn at random. 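Higher correlation or smaller distance means closer resemblance to KSR1 loss; control wells, including KSR1 knockdowns, recur on many plates.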 Further read-outs or replicates are left out here. Not stated in the record: the time to read-out.

ADGRE2 (adhesion G protein-coupled receptor E2)
- mean correlation with KSR1 profile: 0.307

HAUS6 (HAUS augmin like complex subunit 6)
- mean correlation with KSR1 profile: 0.268

IREB2 (iron responsive element binding protein 2)
- mean correlation with KSR1 profile: -0.166

SERF1B (small EDRK-rich factor 1B)
- mean correlation with KSR1 profile: -0.296

TRIM62 (tripartite motif containing 62)
- mean correlation with KSR1 profile: -0.0947

Taken from above:
Entry for IREB2 (iron responsive element binding protein 2) under “mean correlation with KSR1 profile”: -0.166
Result of HAUS6 (HAUS augmin like complex subunit 6) under “mean correlation with KSR1 profile”: 0.268

Additional results follow:
PDE3A (phosphodiesterase 3A)
- mean correlation with KSR1 profile: 0.225

MKRN1 (makorin ring finger protein 1)
- mean correlation with KSR1 profile: 0.0352

SV2C (synaptic vesicle glycoprotein 2C)
- mean correlation with KSR1 profile: -0.609

TMCC3 (transmembrane and coiled-coil domain family 3)
- mean correlation with KSR1 profile: -0.725

ARHGAP11A (Rho GTPase activating protein 11A)
- mean correlation with KSR1 profile: 0.769

CAMKMT (calmodulin-lysine N-methyltransferase)
- mean correlation with KSR1 profile: 0.544

PDLIM5 (PDZ and LIM domain 5)
- mean correlation with KSR1 profile: -0.318
